PubChem BioAssay AID1508597 | Cure First – 2020

Aim: 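Survival screen with siRNA in ovarian cancer cells derived from patients, with or without rucaparib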 (primary screen)
Cells: human ovarian carcinoma lines grown from tumours: OCI-P5x (papillary serous) and OCI-C5x (clear cell)
Reagents: siRNA pool against human genes, 1.25 pmol siRNA per well
Timing: 72 h or 96 h, depending on the cell culture
Treatment: rucaparib 20 µM (about IC30) or vehicle, present until read-out
Rucaparib or vehicle: Vehicle
Cell line: OCI-P5x (serous)
Measurement: 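Luminescent ATP-based viability assay read 72 or 96 h after transfection, depending on culture, given as normalised percent viability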
Direction: viability, normalised: higher = more viable cells remaining
Rule for the call: 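Active when normalised viability falls below 80 percent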
Meaning of the calls: active = viability under 80%; inactive = viability 80% or more
This is an unselected part of the about 2,100 reagents, under one of the conditions tested. 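Calls flag viability under 80% in either arm, not effects specific to rucaparib; the reference for percent is not stated.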 Entries without a mark were called inactive. A reagent listed more than once was tested more than once; the source does not tell the runs apart. Not stated in the record: the 100% reference.

With OXSM, technical replicate 1 the deposit lists viability, normalised (%) = 81.9.
OXSM, technical replicate 2 scored viability, normalised (%) = 61.7 (active).
With OXSM, technical replicate 3, the values are viability, normalised (%) = 71 (active).
SMAD4, technical replicate 1 scored viability, normalised (%) = 46.4 (active).
SMAD4, technical replicate 2 scored viability, normalised (%) = 43.1 (active).
With SMAD4, technical replicate 3, the values are viability, normalised (%) = 57.2 (active).
For WNK1, technical replicate 1, the entry reads viability, normalised (%) = 78.2 (active).
WNK1, technical replicate 1 scored viability, normalised (%) = 80.5.
WNK1, technical replicate 2 scored viability, normalised (%) = 93.7.
WNK1, technical replicate 2 scored viability, normalised (%) = 72.8 (active).
WNK1, technical replicate 3 scored viability, normalised (%) = 79.1 (active).
For WNK1, technical replicate 3, the entry reads viability, normalised (%) = 85.1.
DCLK2, technical replicate 1 gave viability, normalised (%) = 73.2 (active).
With DCLK2, technical replicate 2, the values are viability, normalised (%) = 61.9 (active).
DCLK2, technical replicate 3 showed viability, normalised (%) = 70.2 (active).
With INTS12, technical replicate 1 the deposit lists viability, normalised (%) = 63.3 (active).
INTS12, technical replicate 2 showed viability, normalised (%) = 62.3 (active).
INTS12, technical replicate 3 gave viability, normalised (%) = 78.6 (active).
MEAF6, technical replicate 1 scored viability, normalised (%) = 72.9 (active).
MEAF6, technical replicate 2 showed viability, normalised (%) = 75.7 (active).
With MEAF6, technical replicate 3, the values are viability, normalised (%) = 76 (active).
With PRC1, technical replicate 1, the values are viability, normalised (%) = 54.1 (active).
For PRC1, technical replicate 2, the values are viability, normalised (%) = 52.6 (active).
With PRC1, technical replicate 3 the deposit lists viability, normalised (%) = 59 (active).
IKBKB, technical replicate 1 gave viability, normalised (%) = 69.8 (active).
IKBKB, technical replicate 2 showed viability, normalised (%) = 59.9 (active).
IKBKB, technical replicate 3 scored viability, normalised (%) = 66.6 (active).

7 entries already listed, arranged by “viability, normalised (%)”, lowest first:
PRC1, technical replicate 2 — viability, normalised (%): 52.6 (active)
PRC1, technical replicate 1 — viability, normalised (%): 54.1 (active)
PRC1, technical replicate 3 — viability, normalised (%): 59 (active)
IKBKB, technical replicate 2 — viability, normalised (%): 59.9 (active)
IKBKB, technical replicate 3 — viability, normalised (%): 66.6 (active)
IKBKB, technical replicate 1 — viability, normalised (%): 69.8 (active)
MEAF6, technical replicate 3 — viability, normalised (%): 76 (active)

Continued.
TXNDC9, technical replicate 1 gave viability, normalised (%) = 72.2 (active).
For TXNDC9, technical replicate 2 the deposit lists viability, normalised (%) = 80.1.
TXNDC9, technical replicate 3 scored viability, normalised (%) = 85.2.
MED23, technical replicate 1 gave viability, normalised (%) = 57.3 (active).
MED23, technical replicate 2 gave viability, normalised (%) = 65.2 (active).
With MED23, technical replicate 3, the entry reads viability, normalised (%) = 61.5 (active).
For MED27, technical replicate 1, the values are viability, normalised (%) = 53.2 (active).
MED27, technical replicate 2 showed viability, normalised (%) = 60.8 (active).
MED27, technical replicate 3 showed viability, normalised (%) = 68.6 (active).
GFI1B, technical replicate 1 gave viability, normalised (%) = 62.7 (active).
With GFI1B, technical replicate 2, the values are viability, normalised (%) = 71.1 (active).
GFI1B, technical replicate 3 gave viability, normalised (%) = 67.7 (active).
For CAMK1D, technical replicate 1, the entry reads viability, normalised (%) = 96.3.
CAMK1D, technical replicate 2 showed viability, normalised (%) = 92.2.
CAMK1D, technical replicate 3 showed viability, normalised (%) = 97.6.
